The values that follow come from article PMC7782524.

These are yes or no findings as the source states them, for the method shown. In cells and extracts the contact can be indirect.

The target of this experiment is TP53^R273H (293–393)-FLAG (human) (UniProt P04637). As to the kind of experiment: co-IP; lysates of H1299 cells transfected with full-length or truncated TP53^R273H-FLAG; IP with anti-FLAG, blot for endogenous BCAR1; 0.1% NP40 lysis buffer, 4 °C.

B1: endogenous BCAR1 (breast cancer anti-estrogen resistance 1) (protein, UniProt P56945 1-870)
chain: MNHLNVLAKALYDNVAESPDELSFRKGDIMTVLEQDTQGLDGWWLCSLHGRQGIVPGNRLKILVGMYDKKPAGPGPGPPATPAQPQPGLHAPAPPASQYTPMLPNTYQPQPDSVYLVPTPSKAQQGLYQVPGPSPQFQSPPAKQTSTFSKQTPHHPFPSPATDLYQVPPGPGGPAQDIYQVPPSAGMGHDIYQVPPSMDTRSWEGTKPPAKVVVPTRVGQGYVYEAAQPEQDEYDIPRHLLAPGPQDIYDVPPVRGLLPSQYGQEVYDTPPMAVKGPNGRDPLLEVYDVPPSVEKGLPPSNHHAVYDVPPSVSKDVPDGPLLREETYDVPPAFAKAKPFDPARTPLVLAAPPPDSPPAEDVYDVPPPAPDLYDVPPGLRRPGPGTLYDVPRERVLPPEVADGGVVDSGVYAVPPPAEREAPAEGKRLSASSTGSTRSSQSASSLEVAGPGREPLELEVAVEALARLQQGVSATVAHLLDLAGSAGATGSWRSPSEPQEPLVQDLQAAVAAVQSAVHELLEFARSAVGNAAHTSDRALHAKLSRQLQKMEDVHQTLVAHGQALDAGRGGSGATLEDLDRLVACSRAVPEDAKQLASFLHGNASLLFRRTKATAPGPEGGGTLHPNPTDKTSSIQSRPLPSPPKFTSQDSPDGQYENSEGGWMEDYDYVHLQGKEEFEKTQKELLEKGSITRQGKSQLELQQLKQFERLEQEVSRPIDHDLANWTPAQPLAPGRTGGLGPSDRQLLLFYLEQCEANLTTLTNAVDAFFTAVATNQPPKIFVAHSKFVILSAHKLVFIGDTLSRQAKAADVRSQVTHYSNLLCDLLRGIVATTKAAALQYPSPSAAQDMVERVKELGHSTQQFRRVLGQLAAA
B1: the binding result is “no binding”.
